Results published in paper doi:10.1101/2024.04.30.591961.

Chains of the proteins cited; added tags and fusions are not shown. Lines headed by an entry give the natural chain unless they say otherwise; changes in a name come on top. Residues count along the entry.
UniProt P09110: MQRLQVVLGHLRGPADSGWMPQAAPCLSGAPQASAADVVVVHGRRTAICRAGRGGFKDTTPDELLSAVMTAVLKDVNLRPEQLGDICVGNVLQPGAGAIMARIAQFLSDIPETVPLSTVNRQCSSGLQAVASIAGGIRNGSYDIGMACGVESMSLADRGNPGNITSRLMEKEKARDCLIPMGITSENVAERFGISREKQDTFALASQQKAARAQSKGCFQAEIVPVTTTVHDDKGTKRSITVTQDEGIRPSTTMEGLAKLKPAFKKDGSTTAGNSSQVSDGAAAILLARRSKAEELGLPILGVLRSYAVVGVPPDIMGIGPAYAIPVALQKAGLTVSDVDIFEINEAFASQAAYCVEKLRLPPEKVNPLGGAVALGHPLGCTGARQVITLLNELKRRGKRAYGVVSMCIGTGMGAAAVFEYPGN
UniProt O14832: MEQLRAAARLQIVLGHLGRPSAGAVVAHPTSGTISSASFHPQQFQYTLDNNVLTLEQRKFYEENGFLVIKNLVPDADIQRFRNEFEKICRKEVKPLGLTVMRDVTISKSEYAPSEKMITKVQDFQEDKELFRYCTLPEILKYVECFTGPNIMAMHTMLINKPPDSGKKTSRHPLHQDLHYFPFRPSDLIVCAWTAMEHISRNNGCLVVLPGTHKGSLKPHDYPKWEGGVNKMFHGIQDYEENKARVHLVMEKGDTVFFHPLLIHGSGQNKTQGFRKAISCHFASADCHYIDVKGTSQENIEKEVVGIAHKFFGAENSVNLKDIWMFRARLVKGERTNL
UniProt Q5I0X4: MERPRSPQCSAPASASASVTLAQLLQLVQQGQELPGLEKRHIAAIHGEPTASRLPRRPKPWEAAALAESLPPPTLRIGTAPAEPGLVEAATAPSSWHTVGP
UniProt P27824, residues 21-592: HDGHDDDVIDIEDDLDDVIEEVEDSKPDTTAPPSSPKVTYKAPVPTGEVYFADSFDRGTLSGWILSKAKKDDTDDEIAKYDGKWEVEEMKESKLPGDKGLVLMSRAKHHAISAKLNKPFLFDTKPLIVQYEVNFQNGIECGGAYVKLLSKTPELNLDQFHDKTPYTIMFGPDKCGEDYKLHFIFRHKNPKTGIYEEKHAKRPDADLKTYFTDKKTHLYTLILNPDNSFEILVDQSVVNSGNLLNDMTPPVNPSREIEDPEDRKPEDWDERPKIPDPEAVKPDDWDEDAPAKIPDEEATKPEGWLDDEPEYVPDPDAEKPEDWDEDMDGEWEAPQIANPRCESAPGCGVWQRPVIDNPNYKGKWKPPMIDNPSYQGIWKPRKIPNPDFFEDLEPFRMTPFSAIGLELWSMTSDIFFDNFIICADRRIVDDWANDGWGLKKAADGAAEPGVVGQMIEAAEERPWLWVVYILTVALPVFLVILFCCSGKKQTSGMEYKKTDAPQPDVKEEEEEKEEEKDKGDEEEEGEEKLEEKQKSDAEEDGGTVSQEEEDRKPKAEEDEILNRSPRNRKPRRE
UniProt Q92968: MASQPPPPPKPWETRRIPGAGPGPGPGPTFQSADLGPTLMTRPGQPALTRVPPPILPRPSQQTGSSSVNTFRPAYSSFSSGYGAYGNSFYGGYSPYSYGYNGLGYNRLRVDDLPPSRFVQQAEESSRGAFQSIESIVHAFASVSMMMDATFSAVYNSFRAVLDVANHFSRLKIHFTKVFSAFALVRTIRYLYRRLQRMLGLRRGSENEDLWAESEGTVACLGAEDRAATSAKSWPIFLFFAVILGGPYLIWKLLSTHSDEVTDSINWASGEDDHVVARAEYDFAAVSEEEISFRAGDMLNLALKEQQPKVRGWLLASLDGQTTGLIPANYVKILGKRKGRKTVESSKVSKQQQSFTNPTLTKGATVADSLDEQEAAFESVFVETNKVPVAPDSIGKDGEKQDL
UniProt O00116: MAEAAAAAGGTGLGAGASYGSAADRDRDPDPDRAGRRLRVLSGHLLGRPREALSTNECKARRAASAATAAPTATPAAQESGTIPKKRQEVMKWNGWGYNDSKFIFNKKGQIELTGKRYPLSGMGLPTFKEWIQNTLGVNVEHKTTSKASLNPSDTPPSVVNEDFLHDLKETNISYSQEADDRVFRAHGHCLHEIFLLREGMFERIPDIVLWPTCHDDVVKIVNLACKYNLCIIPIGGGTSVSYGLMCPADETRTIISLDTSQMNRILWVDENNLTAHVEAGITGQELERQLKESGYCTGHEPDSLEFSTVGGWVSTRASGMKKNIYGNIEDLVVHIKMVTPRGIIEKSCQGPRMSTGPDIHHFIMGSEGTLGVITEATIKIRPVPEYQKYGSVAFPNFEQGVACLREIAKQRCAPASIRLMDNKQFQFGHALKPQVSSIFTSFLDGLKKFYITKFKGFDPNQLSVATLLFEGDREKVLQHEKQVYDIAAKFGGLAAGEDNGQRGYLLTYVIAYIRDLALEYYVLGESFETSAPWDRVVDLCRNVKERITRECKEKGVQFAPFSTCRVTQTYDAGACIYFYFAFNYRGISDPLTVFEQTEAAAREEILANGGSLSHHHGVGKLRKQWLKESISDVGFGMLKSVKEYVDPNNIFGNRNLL

Columns and labels:
Test in all cases: co-IP
ACAA1-FLAG-HA (human) [1] = target: ACAA1-FLAG-HA (human) (UniProt P09110)
PHYH-FLAG-HA (human) [2] = target: PHYH-FLAG-HA (human) (UniProt O14832)
HsPEX39-FLAG-HA (human) [3] = target: HsPEX39-FLAG-HA (human) (UniProt Q5I0X4)
PEX7-FLAG-HA (human) [4] = target: T1, PEX7-FLAG-HA (human) (UniProt O00628)
T1 sequence: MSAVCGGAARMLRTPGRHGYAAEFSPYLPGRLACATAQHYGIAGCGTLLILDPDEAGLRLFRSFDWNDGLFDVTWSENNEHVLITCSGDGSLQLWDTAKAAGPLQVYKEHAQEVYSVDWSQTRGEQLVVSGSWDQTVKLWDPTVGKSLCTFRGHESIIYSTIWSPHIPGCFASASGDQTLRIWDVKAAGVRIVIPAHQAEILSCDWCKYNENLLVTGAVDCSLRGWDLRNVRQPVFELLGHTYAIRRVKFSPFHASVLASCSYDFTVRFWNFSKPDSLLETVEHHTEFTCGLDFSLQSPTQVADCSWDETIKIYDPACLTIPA

HsPEX39-FLAG-HA (human) [5] = target: HsPEX39-FLAG-HA (human) (UniProt Q5I0X4); remark: listed apart in the source
PEX7-FLAG-HA (human) [6] = target: T1, PEX7-FLAG-HA (human); remark: listed apart in the source
ACAA1-FLAG-HA (human) [7] = target: ACAA1-FLAG-HA (human) (UniProt P09110); remark: listed apart in the source
PHYH-FLAG-HA (human) [8] = target: PHYH-FLAG-HA (human) (UniProt O14832); remark: listed apart in the source

Row | Substance | binding (ACAA1-FLAG-HA (human) [1]) | binding (PHYH-FLAG-HA (human) [2]) | binding (HsPEX39-FLAG-HA (human) [3]) | binding (PEX7-FLAG-HA (human) [4]) | binding (HsPEX39-FLAG-HA (human) [5]) | binding (PEX7-FLAG-HA (human) [6]) | binding (ACAA1-FLAG-HA (human) [7]) | binding (PHYH-FLAG-HA (human) [8])
1 | calnexin (CANX) (from UniProt P27824 21-592) | no binding | no binding | – | – | – | – | – | –
2 | endogenous ACAA1 (precursor form) (from UniProt P09110) (enzyme) | – | – | binds | binds | binds | binds | – | –
3 | endogenous HsPEX13 (from UniProt Q92968 1-403) | binds | binds | – | – | – | – | – | –
4 | endogenous HsPEX39 (from UniProt Q5I0X4 1-101) | binds | binds | – | – | – | – | binds | binds
5 | endogenous PHYH (precursor form) (from UniProt O14832) (enzyme) | – | – | binds | binds | binds | binds | – | –
6 | endogenous alkyl-DHAP synthase (AGPS) (precursor form) (from UniProt O00116) (enzyme) | – | – | binds | binds | binds | binds | – | –

Read-outs that look alike come from different tables or passages of the source. These are yes or no findings as the source states them, for the method shown. Binding seen in cells or lysates may run through a third protein. Binding calls can cover weak binding; strength is not graded here. For some assays here: Sequences can lack the tags named with a protein.
